Test results: paper doi:10.64898/2025.12.21.693523
Results are given in words; binding and its absence hold for the method and conditions named. In cells and extracts the contact can be indirect. These calls come from enrichment with a bait or labelling near it, and not all partners need be listed.

Amino acid sequences for entries named in this document (tags omitted).
UniProt Q8IXI2, whole entry: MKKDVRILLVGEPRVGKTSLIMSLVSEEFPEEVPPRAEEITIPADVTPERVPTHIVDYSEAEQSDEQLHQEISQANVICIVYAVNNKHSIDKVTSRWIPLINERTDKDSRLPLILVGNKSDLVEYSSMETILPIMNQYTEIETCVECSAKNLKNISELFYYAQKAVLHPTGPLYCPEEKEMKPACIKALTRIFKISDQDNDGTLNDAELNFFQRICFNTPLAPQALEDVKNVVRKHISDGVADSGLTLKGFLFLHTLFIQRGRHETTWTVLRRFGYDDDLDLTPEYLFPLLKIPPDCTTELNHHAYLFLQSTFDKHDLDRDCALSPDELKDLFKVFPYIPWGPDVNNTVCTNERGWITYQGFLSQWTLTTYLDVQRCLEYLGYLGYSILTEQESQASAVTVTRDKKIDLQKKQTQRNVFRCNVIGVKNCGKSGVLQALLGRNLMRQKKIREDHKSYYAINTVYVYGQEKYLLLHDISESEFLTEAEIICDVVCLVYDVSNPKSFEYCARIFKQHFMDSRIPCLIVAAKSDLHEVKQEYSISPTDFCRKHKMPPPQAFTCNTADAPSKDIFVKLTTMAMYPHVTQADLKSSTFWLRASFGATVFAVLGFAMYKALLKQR

Biological target: LOV-Tb-Miro1-WT, Q8IXI2
Assay: proximity labelling
Conditions: remark: other sources report otherwise

B1: MTFR2, Q6P444 1-385 (protein)
chain: MSLILNILREMLEYFGVPVEQVLLIWENKDYGSTRSIVRIIGKMLPLEPCRRPNFELIPLLNSVDSDNCGSMVPSFADILYVANDEEASYLRFRNSIWKNEEEKVEIFHPLRLVRDPLSPAVRQKETVKNDLPVNEAAIRKIAALENELTFLRSQIAAIVEMQELKNSTNSSSFGLSDERISLGQLSSSRAAHLSVDPDQLPGSVLSPPPPPPLPPQFSSLQPPCFPPVQPGSNNICDSDNPATEMSKQNPAANKTNYSHHSKSQRNKDIPNMLDVLKDMNKVKLRAIERSPGGRPIHKRKRQNSHWDPVSLISHALKQKFAFQEDDSFEKENRSWESSPFSSPETSRFGHHISQSEGQRTKEEMVNTKAVDQGISNTSLLNSRI
binding: binds
